{"source": "paper doi:10.1101/2020.01.10.901496", "target": "NISP (AT4G30240) full length, Gal4 fusions for the yeast two-hybrid assay (Arabidopsis thaliana) (UniProt F4JPK7)", "experiment": "two-hybrid", "note": "No constants are given. Whether binding was seen depends on the method and setting. Binding calls can cover weak binding; strength is not graded here.", "data": [{"substance": "NSP-interacting GTPase (NIG), Gal4 activation domain fusion for the yeast two-hybrid assay (from UniProt F4JT06)", "values": [{"measurement": "binding", "value": "binds"}]}]}
